# Among all 360,000 compounds or so, about 7,500 (2.1%) were called active. Inconclusive results, whose numbers are uncertain, are shown with a selection of clear calls. Calls come from the whole dose curve; as a rule, active = well fitted inhibition curve with a large enough effect; inconclusive = small, poorly fitted or top-dose-only effect, or effect the other way; inactive = flat fitted curve, though single readings scatter. Potencies beside an inconclusive call are fits to weak or partial responses and may not hold up.
# Test: Nrf2 qHTS screen for inhibitors; note: nearly all actives have a fitted effect of over 60% in size
# Details: A549 ARE-Fluc reporter, luciferase luminescence, 18-24 h; activity change, negative = inhibition: at 46 µM (top of the series)
# In short: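 In this cell-based qHTS, ARE-driven firefly luciferase in A549 cells reports Nrf2 activity; the luminescent signal after BugLite lysis is the measured value, with a prior CellTiter-Fluor read for cell health.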
# % is set by controls: 0 for no effect and ±100 for the full control effect; potency is the fitted concentration of half-maximal effect.
SMILES,Potency,"activity change, negative = inhibition"
COc1ccc(NC(=S)N2CCN(C/C=C/c3ccccc3)CC2)c(OC)c1,"inconclusive: 16.4 µM [falling, single point]",–
Cc1cccc(C)c1NC(=O)C1CCCCN1C (stereo not given),"inconclusive: 8.2 µM [falling, partial curve, poor fit]",–
Cc1ccc(S(=O)(=O)Nc2nc(-c3ccccc3)cs2)cc1,–,inactive: -4.28%
CNC(=O)c1sc(Nc2ccc(OCc3ccccc3)cc2)nc1C,active: 20.6 µM,–
Cc1ccc(NC(=O)C(C)OC(=O)COc2cccc(C(F)(F)F)c2)cc1 (stereo not given),–,inactive: -1.8%
NC1=NC(=Nc2ccc(S(=O)(=O)N3CCOCC3)cc2)c2ccccc21,"inconclusive: 20.6 µM [falling, partial curve, poor fit]",–
O=C(N/N=C/c1ccc(O)cc1O)/C(=C/c1ccccc1)CCO,"inconclusive: 16.4 µM [falling, partial curve]",–
CC1(C)C(=O)OC(c2cc(Br)ccc2O)C(C)(C)C1=O (stereo not given),"inconclusive: 9.2 µM [falling, partial curve, poor fit]",–
Cc1cc(C)c2[nH]c(C(=O)Nc3ccc(F)cc3Br)cc2c1,"inconclusive: 3.26 µM [activator, partial curve]",–
COc1ccc(CS(=O)(=O)c2nc(C)cc(C)c2S(C)(=O)=O)cc1,"inconclusive: 16.4 µM [activator, single point]",–
COc1ccc(NC(=O)C(=O)NNC(=O)c2cccs2)cc1,"inconclusive: 11.6 µM [activator, partial curve, poor fit]",–
CCCN1CCN(C(=O)c2ccccc2-c2nc3ccccc3s2)CC1,"inconclusive: 23.1 µM [activator, single point]",–
Cc1csc(Nc2ccc(Cl)cc2)n1,"inconclusive: 9.2 µM [activator, partial curve]",–
COc1ccc(/C=C2\SC(=S)N(CCC(=O)Nc3ccc(O)cc3)C2=O)cc1,–,inactive: -15%
CSc1ccc(NC(=O)N2CCN(c3nc4ccccc4s3)CC2)cc1,"inconclusive: 16.4 µM [falling, single point]",–
CCOc1ccc(CCNCc2c(C(=O)O)n(Cc3ccc(C)cc3)c3cc(OC)ccc23)cc1,–,inactive: 28.5%
Cn1nnnc1Sc1ncnc2scc(-c3ccccc3Cl)c12,active: 25.9 µM,–
CC(C)=CCc1c2c(c(O)c3c(=O)c4c(oc13)-c1cc(O)c(O)cc1OC4C=C(C)C)C=CC(C)(C)O2 (stereo not given),"inconclusive: 29.1 µM [falling, single point]",–
Cc1ccc(N2C(N)=C(C#N)C(c3ccsc3)C3=C2CC(C)(C)CC3=O)cc1 (stereo not given),"inconclusive: 32.6 µM [falling, partial curve, poor fit]",–
Cc1cc(C)n2nc(-c3ccc(F)cc3)nc2n1,"inconclusive: 5.17 µM [activator, full curve]",–

# Compounds shown so far that have a Cl atom:
SMILES,Potency,"activity change, negative = inhibition"
Cc1csc(Nc2ccc(Cl)cc2)n1,"inconclusive: 9.2 µM [activator, partial curve]",–
Cn1nnnc1Sc1ncnc2scc(-c3ccccc3Cl)c12,active: 25.9 µM,–

# Later entries.

SMILES,Potency,"activity change, negative = inhibition"
CCOc1ccccc1C(=O)N[C@H](C(=O)OCc1csc(CC(=O)Nc2ccc(C)cc2)n1)C(C)C,"inconclusive: 18.4 µM [falling, single point]",–
COc1cccc(CNc2nc3c(-c4ccccc4)nnn3c3ccccc23)c1,"inconclusive: 2.31 µM [activator, full curve]",–
COc1ccc(CNC(=O)C(c2ccco2)N(Cc2cccs2)C(=O)Cc2cccs2)cc1 (stereo not given),"inconclusive: 32.6 µM [falling, single point]",–
CN(CCN1CCOCC1)C(=O)c1cc(COc2ccc(F)c(F)c2)on1,"inconclusive: 18.4 µM [activator, partial curve]",–
O=C(NCCCCc1ccccc1)NC[C@@H]1CC[C@@H](Cc2ccc(-c3ccccc3)cc2)O1,"inconclusive: 32.6 µM [falling, single point]",–
COc1ccc(CN2CCN(S(=O)(=O)c3ccc(F)cc3)CC2)cc1OC,"inconclusive: 16.4 µM [falling, partial curve, poor fit]",–
Cc1nc(-c2ccc(S(=O)(=O)N3CCCN(CCc4ccccc4)CC3)s2)cs1,"inconclusive: 29.1 µM [falling, single point]",–
COc1ccc(-c2[nH]ncc2N=Nc2cc(C)cc(C)c2)cc1,"inconclusive: 18.4 µM [falling, single point]",–
COc1nnc(-c2ccc(C)c(S(=O)(=O)NC(C)(C)CO)c2)c2ccccc12,"inconclusive: 18.4 µM [falling, single point]",–
COc1ccc(Nc2nnc(-c3ccc(C(N)=O)cc3)c3ccccc23)cc1,"inconclusive: 14.6 µM [falling, partial curve, poor fit]",–
Oc1c(C=Nc2ccccc2Cl)[nH]c2ccccc12,"inconclusive: 20.6 µM [activator, partial curve]",–
O=C(N/N=C/C=C\c1ccccc1)c1cnccn1,"inconclusive: 2.59 µM [activator, full curve]",–
CCn1cnc2c(NCc3cccnc3)nc(C#N)nc21,"inconclusive: 29.1 µM [falling, single point]",–
Cc1cc(C(=O)Cn2cnc3cc(F)ccc3c2=O)c(C)n1C1CC1,"inconclusive: 18.4 µM [activator, partial curve, poor fit]",–
Cc1nonc1C(=O)N/N=C/c1ccc(O)cc1,"inconclusive: 14.6 µM [activator, single point]",–
O=C(COc1ccc(S(=O)(=O)N2CCOCC2)cc1)NC1CC1,"inconclusive: 1.84 µM [activator, full curve, poor fit]",–
O=C1CC(N2CCN(C/C=C/c3ccccc3)CC2)C(=O)N1CCc1ccccc1 (stereo not given),active: 9.2 µM,–
Cc1cc([N+](=O)[O-])c2ccccc2c1NS(=O)(=O)c1ccccc1,"inconclusive: 25.9 µM [falling, single point]",–
CCC1=C(OC(=O)N(CC)CC)N2C(=O)OC(=NCCc3c[nH]c4ccccc34)[C@]2(Cc2ccccc2)[C@H]2C1=CC[C@H]1C(=O)NC(=O)[C@H]12,"inconclusive: 32.6 µM [falling, single point]",–
Cc1ccc(-c2nc(CSCC(=O)NCCN3CCN(Cc4ccccc4)CC3)c(C)o2)cc1,"inconclusive: 10.3 µM [falling, partial curve, poor fit]",–

# Some of the entries above in another layout.
SMILES | Potency | activity change, negative = inhibition
O=C(N/N=C/C=C\c1ccccc1)c1cnccn1 | inconclusive: 2.59 µM [activator, full curve] | –
CCn1cnc2c(NCc3cccnc3)nc(C#N)nc21 | inconclusive: 29.1 µM [falling, single point] | –

# Reference: PubChem BioAssay AID504444 (National Center for Advancing Translational Sciences (NCATS), 2011)
